Assay [1] deals with human platelet membrane glycoprotein VI (GPVI) on human platelets (human) (UniProt Q9HCN6). The assay can be described thus: flow cytometry on platelets, 3-4 µg/mL.
The target in assay [2] is human GPVI extracellular region-human Fc fusion protein (hGPVI-hFc) (human). The assay is described as follows: ELISA on immobilised hGPVI-hFc, anti-human mu chain detection.

Chains of the proteins cited; added tags and fusions are not shown. Lines headed by an entry give the natural chain unless they say otherwise; changes in a name come on top. Residues count along the entry.
UniProt Q9HCN6, residues 21-339: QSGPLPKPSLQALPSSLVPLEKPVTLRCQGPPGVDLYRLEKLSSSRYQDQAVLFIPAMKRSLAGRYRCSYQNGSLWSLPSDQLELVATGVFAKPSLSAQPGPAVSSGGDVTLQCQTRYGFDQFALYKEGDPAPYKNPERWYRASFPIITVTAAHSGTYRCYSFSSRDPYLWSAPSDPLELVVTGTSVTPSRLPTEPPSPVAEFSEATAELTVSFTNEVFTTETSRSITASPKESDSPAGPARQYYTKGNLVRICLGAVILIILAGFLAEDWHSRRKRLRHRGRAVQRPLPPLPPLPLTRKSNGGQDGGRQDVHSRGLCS
UniProt P01591: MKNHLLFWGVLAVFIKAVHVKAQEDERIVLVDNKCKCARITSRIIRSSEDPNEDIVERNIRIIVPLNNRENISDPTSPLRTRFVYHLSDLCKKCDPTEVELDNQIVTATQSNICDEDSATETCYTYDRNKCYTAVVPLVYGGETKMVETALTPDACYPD

No constants are given. Whether binding was seen depends on the method and setting. Some binding calls cover weakened binding; strength is not graded here.

Regarding “cF1232-37-2 (IgM) (mouse/human chimeric IgM-type F1232-37-2) (from UniProt P01591 23-159) (antibody)”, the binding entry in assay [1] and in assay [2] was “binds” throughout.

The record behind these values is US20110217318A1.
